Consider 1 molecule from publication PMC2962900, “Kinetics of Methylation by EcoP1I DNA Methyltransferase” (Enzyme Research, 2010).

The target of test [1] is EcoP1I DNA methyltransferase (M.EcoP1I) (bacteriophage P1) (UniProt P08763). In words: SEC; gel filtration of M.EcoP1I loaded in the presence of 500 mM NaCl; data not shown; both purified. For orientation: SEC sorts molecules by how far they enter the pores of the column.
Test [2] shares this target. In words: SEC; rechromatography of the eluted dimer peak and of the high molecular weight peak on the same column; data not shown; both purified.

Results are given in words; binding and its absence hold for the method and conditions named. Some entries that bind do so weakly or less than the wild type.

B1: EcoP1I DNA methyltransferase (M.EcoP1I) (enzyme, bacteriophage P1, UniProt P08763 1-646, looked up)
chain: MKKETIFSEVETANSKQLAVLKANFPQCFDKNGAFIQEKLLEIIRASEVELSKESYSLNWLGKSYARLLANLPPKTLLAEDKTHNQQEENKNSQNLLIKGDNLEVLKHMVNAYAEKVNMIYIDPPYNTGKDGFVYNDDRKFTPEQLSELAGIELDEANRILEFTTKGSSSHSAWLTFIYPRLYIARELLKEDGVIFISIDDNEDKQLGLLCDEVFGQGNFVAKLPTIMNLKGNHDNFGFSDTHEYIYVYAKNKDVCSLGQFDIDESEVEKEWDEDEYGLFKRADTLKRTGQDASRKSRPKGWFPVFINSENKVYVTDDDKPLNEDDYVLYPVSPTGEELSWSWGKKKINDEFYNLIVIDIKDGKNIYKKQRPALGELPTKKPKSIWYKPEYSTSTATTELKNLLGAKLFEGPKPVPLITDLVKIGTKKDSLVLDFFAGSGTTAEAVAYLNEKDSGCRNFICIQKDEVINKTKNAYSLGYRSIFEITKKRIQEVFKKSTTTSDNAAKIGFKVIHTIDDFRAKVESELTLTNHTFFDDAVLTPEQYDALLTTWCVYDGSLLTTPIEDVDLSGYTAHFCNGRLYLIAPNFTSEALKALLQKLDSDEDFAPNKVVFYGCNFESAKQRELNEALKSYANKKSIELDLVVRN
notes: EcoP1I DNA methyltransferase, product of the mod gene of the EcoP1I Type III restriction-modification system of bacteriophage (prophage) P1; 1948 bp gene amplified with primers from the 5' and 3' ends of the open reading frame, cloned in the BamHI site of pET15b (construct pSN2); calculated mass ~75 kDa; No removal of the His6 tag is described. pET15b adds linker residues between the tag and the …
Turning to B1, the binding result in test [1] and in test [2] was “binds” throughout.
